Laboratory results: patent EP1752538A1
No constants are given. Whether binding was seen depends on the method and setting. Some entries that bind do so weakly or less than the wild type.

Protein sequences, listed by entry. Tags and fused reporters are not part of them. Lines headed by an entry give the natural chain unless they say otherwise; changes in a name come on top. Residues count along the entry.
UniProt P00760, residues 24-246: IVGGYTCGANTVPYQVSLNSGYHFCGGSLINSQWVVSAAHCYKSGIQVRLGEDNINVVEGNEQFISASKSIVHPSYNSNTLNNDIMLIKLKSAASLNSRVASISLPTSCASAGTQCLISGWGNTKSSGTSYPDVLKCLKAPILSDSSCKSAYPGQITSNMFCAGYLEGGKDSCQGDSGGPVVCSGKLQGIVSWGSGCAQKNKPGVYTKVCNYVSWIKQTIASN
UniProt O43291: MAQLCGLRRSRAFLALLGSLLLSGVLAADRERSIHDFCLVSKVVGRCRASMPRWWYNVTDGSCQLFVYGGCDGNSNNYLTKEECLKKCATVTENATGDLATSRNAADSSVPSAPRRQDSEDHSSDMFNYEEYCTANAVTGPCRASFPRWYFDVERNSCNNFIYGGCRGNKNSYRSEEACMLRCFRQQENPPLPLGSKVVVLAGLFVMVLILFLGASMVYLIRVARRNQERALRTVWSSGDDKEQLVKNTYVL

Biological target: bovine trypsin (type III) (bovine) (UniProt P00760)
Test: trypsin inhibition assay with 50 ul yeast supernatant

recombinant placental bikunin (102-159) expressed in yeast strain SC101 (from UniProt O43291 129-186)
binding: binds
